Test results: the supplement of paper PMC5949888
Most values lie at the floor of the assay. Slopes are relative: functional sequences can read slightly below zero.

These substances were tested on Saccharomyces cerevisiae PS128 hsf1 delta, HSF1(1-493) fusion (assay: growth estimate (transactivation domain function in HSF1 fusion, heat-shock survival) (a.u. (slope of normalised read count over time)); higher = stronger growth at 37°C, i.e. more transactivation activity). Settings: library: random library.
Procedure: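 Random 60-nt DNA library encoding peptides of up to 20 aa, fused to the C-terminus of yeast HSF1 residues 1-493 (C-terminal TAD deleted) and expressed from the native HSF1 promoter on a CEN plasmid in hsf1-deleted S. cerevisiae PS128. Cells were selected at 37°C on -trp 5-FOA plates for 0, 2, 4, 6 and 8 days and amplicons were sequenced. Growth estimate is the slope of a robust linear fit of total-sum-normalised read counts (normalised to the first time point) over time, using at least 2 replicates. Sequences are classed functional (TAD activity) above a threshold of -0.13, set from stop-codon control sequences.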

| Substance | growth estimate |
| --- | --- |
| SVRGVYCA | < -0.25 |
| GSLEMRFL | < -0.25 |
| VTRSDETGRTWTPLSPRLAR | < -0.25 |
| PSDLCRNVVS | < -0.25 |
| TITGASYKPGWDSVGYLGHD | < -0.25 |
| AVR | < -0.25 |
| MRQTVCILDPPAVLSGEAQC | < -0.25 |
| SCTLNVKLGGFRTVWSSDGQ | < -0.25 |
| ALFGRAGQGSRSARC | < -0.25 |
| SAIFQLKTVAVSLAERVLWP | < -0.25 |
| RVESNLRKP | < -0.25 |
| DGLSRVL | < -0.25 |
| YSIFCWYTSVLSLSRDLVSC | -0.245 |
| LVLENALFILPV | < -0.25 |
| PVLLHRAPIE | < -0.25 |
| VASTWSWIHENTVPSPSTVS | < -0.25 |
| CVS | < -0.25 |
| NMRSHRARCKV | < -0.25 |
| EGEAALHVELVQLRG | -0.243 |
| EWSAWYTRNLPTEENAVLWH | < -0.25 |
| GQGLRRPFPEAPRQYCAPQS | < -0.25 |
| GHSGPKYDLL | < -0.25 |
| NTGNSGLDAGYILQHASTPR | < -0.25 |
| EERQICGPKRRTNAGRKDHA | < -0.25 |

Quoted at random: four records from the list.

| Substance | growth estimate |
| --- | --- |
| NTGNSGLDAGYILQHASTPR | < -0.25 |
| LVLENALFILPV | < -0.25 |
| GSLEMRFL | < -0.25 |
| MRQTVCILDPPAVLSGEAQC | < -0.25 |

(further entries)

| Substance | growth estimate |
| --- | --- |
| LRVLLPNVQKEWKHEWKGAG | < -0.25 |
| LSHTVG | < -0.25 |
| RIRSVH | < -0.25 |
| LEPGL | < -0.25 |
| VQAGQAIWEYSTWKTNLFVA | < -0.25 |
| GIGKSGLDVGNRLVLRLVAR | < -0.25 |
| IGSPGAEDDRPEV | < -0.25 |
| GPVQLERCIVMFWHYIILRP | < -0.25 |
| GGKRRLMTR | < -0.25 |
| SFLREIPK | < -0.25 |
| TTINTSTVTCE | < -0.25 |
| TVVQRVRGQIKNSRPATQFL | < -0.25 |
| AGKASFLVQEQPRRGACAEE | < -0.25 |
| GTELV | < -0.25 |
| CKVSRERSRAHVLPR | < -0.25 |
| REWSQTL | < -0.25 |
| VSPCGR | < -0.25 |
| FQTNEFIQRANISRDDRETP | < -0.25 |
| QKRMTE | -0.227 |
| YDLQMSSMQPVWWTRTLVGL | < -0.25 |
| TFRGSARLQLIQPNPPPVVH | < -0.25 |
| RHCTASYKYQQSRPRFVGLP | < -0.25 |
| ARAEHLVTAL | < -0.25 |
| TGGPRVGGPGRLTKSPANG | < -0.25 |

| Substance | growth estimate |
| --- | --- |
| QYQPSWLIYRRGTFKRRMGK | < -0.25 |
| VSTKGSYVMHVSHE | < -0.25 |
| SRSRQRNSV | < -0.25 |
| FARTRLSKTLVQQVAGDTPT | < -0.25 |
| AYIWRSMNCLSRSENRPGSQ | < -0.25 |
| LPC | < -0.25 |
| TST | < -0.25 |
| HFARESNVRGLNGQY | < -0.25 |
| TCAKWKKCLSVAAVIFTVTS | < -0.25 |
| FWYVGYED | < -0.25 |
| KQTISSVKEFGLPHVH | < -0.25 |
| AAMPLIRAQGQQMPGSRLGK | < -0.25 |
| GESYSGLSASGAARQDVSYP | < -0.25 |
| LHVSSLLHRAGVFISPRIRA | < -0.25 |
| KETVRLNPVVQRWTLYRLDS | < -0.25 |
| DPY | < -0.25 |
| TKRSFRRI | < -0.25 |
| YVGILSGSHRWVTVGQVELQ | -0.246 |
| VAISVPLQLSCIE | < -0.25 |
| VVASGGSNKSLQGGASLGVG | < -0.25 |
| SSFACHMVLKSNGN | < -0.25 |
| FIETRSDVWRHTSMKLLT | < -0.25 |
| AWVISWRSNPDALGPHCRGP | < -0.25 |
| SNHFNLGPYWPC | < -0.25 |

| Substance | growth estimate |
| --- | --- |
| PETACELRMQATCTG | < -0.25 |
| FLCLYEHDSYIGPVDSGQGS | < -0.25 |
| RVILWMPSRVRTRAAIRLTF | < -0.25 |
| SPSP | < -0.25 |
| HGSRIVAFGSAGQRGGVGRL | < -0.25 |
| YTP | < -0.25 |
| SPSGT | < -0.25 |
| YPVLSGFGNVRESTVHRWTF | < -0.25 |
| TDAESVKILGLRKSSFPGGR | -0.235 |
| HWVINRLIAV | < -0.25 |
| QGRNLSTNHLC | -0.25 |
| NHSKDPVKVGLHSKAL | < -0.25 |
| VPRETRATSAGKGYDVQTLC | < -0.25 |
| CGGQGRVPRGINWIIVLN | < -0.25 |
| SNSTLRGCRVNNACGIILAI | < -0.25 |
| ICRA | < -0.25 |
| DGPETELPAAVGACIDPAR | < -0.25 |
| LPA | < -0.25 |
| VQPGCARIWRLGAGPSGERS | < -0.25 |
| QTEQP | < -0.25 |
| KIT | < -0.25 |
| LRAYCVGGLDVCLLFYMLSY | < -0.25 |
| RIPPSSTGFCSDASVSSALY | < -0.25 |
| RLRS | < -0.25 |
